The target in assay [1] is Fas.Y291D (pY291 Fas proxy, pro-survival form of Fas) (UniProt P25445). As to the kind of experiment: co-IP; Fas immunoprecipitated with anti-Fas (APO-1-3) on protein G beads from the postnuclear supernatant of SW480 stable cell lines, 4 °C, 18 h; cells synchronized 24 h, without or with 10 ng/ml EGF for 5 minutes; immunoblotting. For orientation: A western blot detects proteins with antibodies after separation by electrophoresis.

Chains of the proteins cited; added tags and fusions are not shown. Lines headed by an entry give the natural chain unless they say otherwise; changes in a name come on top.
UniProt P25445: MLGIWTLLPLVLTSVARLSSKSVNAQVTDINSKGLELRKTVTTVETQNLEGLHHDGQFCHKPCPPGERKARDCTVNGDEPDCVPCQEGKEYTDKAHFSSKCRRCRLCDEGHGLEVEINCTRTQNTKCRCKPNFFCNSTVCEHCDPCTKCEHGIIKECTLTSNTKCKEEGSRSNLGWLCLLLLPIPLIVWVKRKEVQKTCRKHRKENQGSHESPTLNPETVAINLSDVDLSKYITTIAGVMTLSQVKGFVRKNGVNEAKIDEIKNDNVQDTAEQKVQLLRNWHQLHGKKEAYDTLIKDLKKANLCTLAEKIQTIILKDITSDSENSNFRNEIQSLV
UniProt P40763: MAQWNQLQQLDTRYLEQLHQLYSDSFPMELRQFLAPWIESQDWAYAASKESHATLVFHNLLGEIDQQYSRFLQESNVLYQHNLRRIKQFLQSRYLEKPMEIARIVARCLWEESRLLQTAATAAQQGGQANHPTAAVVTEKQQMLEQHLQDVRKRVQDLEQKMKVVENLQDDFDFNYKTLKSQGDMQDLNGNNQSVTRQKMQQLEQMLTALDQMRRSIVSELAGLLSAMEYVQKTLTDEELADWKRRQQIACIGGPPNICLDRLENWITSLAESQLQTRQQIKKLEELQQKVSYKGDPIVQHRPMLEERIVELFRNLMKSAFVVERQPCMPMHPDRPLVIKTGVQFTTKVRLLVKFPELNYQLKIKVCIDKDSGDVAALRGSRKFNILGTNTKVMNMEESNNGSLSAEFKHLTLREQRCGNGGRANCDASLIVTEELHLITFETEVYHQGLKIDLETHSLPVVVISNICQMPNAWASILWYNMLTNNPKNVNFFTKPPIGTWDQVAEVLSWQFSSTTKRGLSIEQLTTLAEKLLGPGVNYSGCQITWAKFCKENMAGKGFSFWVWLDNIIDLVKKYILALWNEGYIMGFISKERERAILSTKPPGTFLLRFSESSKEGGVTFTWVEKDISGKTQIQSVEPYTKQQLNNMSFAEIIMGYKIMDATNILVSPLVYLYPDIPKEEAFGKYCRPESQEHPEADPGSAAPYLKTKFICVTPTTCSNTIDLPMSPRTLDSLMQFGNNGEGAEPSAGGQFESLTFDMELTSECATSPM
UniProt P07947: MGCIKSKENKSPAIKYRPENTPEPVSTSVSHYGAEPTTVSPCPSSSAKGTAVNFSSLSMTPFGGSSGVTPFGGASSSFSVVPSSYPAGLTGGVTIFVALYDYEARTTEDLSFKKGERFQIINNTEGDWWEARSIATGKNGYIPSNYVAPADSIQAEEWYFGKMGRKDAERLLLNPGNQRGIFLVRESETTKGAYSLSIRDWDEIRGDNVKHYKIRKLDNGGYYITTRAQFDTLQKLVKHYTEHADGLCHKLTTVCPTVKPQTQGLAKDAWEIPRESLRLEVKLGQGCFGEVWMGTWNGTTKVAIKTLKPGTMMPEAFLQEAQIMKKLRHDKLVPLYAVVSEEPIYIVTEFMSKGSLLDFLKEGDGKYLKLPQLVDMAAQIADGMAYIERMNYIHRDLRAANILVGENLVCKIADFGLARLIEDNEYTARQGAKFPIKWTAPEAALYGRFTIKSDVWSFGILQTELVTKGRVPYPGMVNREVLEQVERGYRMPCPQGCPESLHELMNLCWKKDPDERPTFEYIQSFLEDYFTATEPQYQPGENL

Assay [2] deals with pY1068 EGFR (activated EGFR), nuclear fraction of SW480 (human (endogenous in SW480)) (UniProt P00533). As to the kind of experiment: co-IP; EGFR co-immunoprecipitation on nuclear fractions of synchronized SW480 cells treated with EGF for 15 minutes as in Figure 6C; immunoblotting.
Assay [3] has as its target Fas (TNFRSF6/CD95), endogenous, nuclear fraction of SW480 cells (human (endogenous in SW480)) (UniProt P25445). As to the kind of experiment: co-IP; IP-FCM (immunoprecipitation detected by flow cytometry): polystyrene beads coated with anti-Fas (Apo-1-3) incubated with lysate of the nuclear fraction of SW480 cells; beads stained with antibodies against pY1068 EGFR or pY705 STAT3 and read by flow cytometry. A general note: A flow cytometer gives signals particle by particle.

In assay [4] the target is pY291 Fas (Fas phosphorylated at Y291), nuclear fraction of SW480 cells overexpressing Fas (UniProt P25445). Kind of assay: co-IP; Fas co-immunoprecipitation on nuclear fractions of synchronized SW480 cells overexpressing Fas, treated with indicated concentrations of EGF for 15 minutes; immunoblotting.

No constants are given. Whether binding was seen depends on the method and setting. Binding seen in cells or lysates may run through a third protein. Some entries that bind do so weakly or less than the wild type.

For the substance “STAT3, endogenous in SW480 (from UniProt P40763 1-770)”, in assay [1], the binding entry is on record as “binds”.
Regarding “Yes-1, endogenous in SW480 (from UniProt P07947 1-543) (enzyme)”, in assay [1], the binding result is recorded as “binds”.
Still for that read-out and setting: under “epidermal growth factor receptor (EGFR/HER1/ErbB1), endogenous in SW480 (from UniProt P00533 25-1210)” stands “binds”.
On to “pY291 Fas (Fas phosphorylated at Y291), nuclear fraction of SW480 cells overexpressing Fas (from UniProt P25445 26-335) (receptor)”, for which the binding entry in assay [2] was “binds”.
For “pY705 STAT3 (activated STAT3), nuclear fraction of SW480 (from UniProt P40763 1-770)”, the binding result in assay [3] and in assay [4] was “binds” each time.
For “pY1068 EGFR (activated EGFR), nuclear fraction of SW480 (from UniProt P00533 25-1210) (receptor)”, the binding result in assay [3] and in assay [4] was “binds” throughout.

These data come from paper PMC6102278.
